According to PubChem BioAssay AID977622 (Broad Institute, 2014):
The list shows a part of the results. These are further read-outs of the screen, such as a control signal, another cell line or another target. No call is given for them.

Assays:
[1] = growth inhibition of wild-type GFP E. coli, dose response, h38 mutant RFP, cherry-pick (AID 977622); details: E. coli mixed culture, 24 h, total growth OD600 at 50 uM
[2] = tested on: E. coli h38 humanized mutant ribosome RFP fluorescence, mixed culture, 24 h; assay: as above; details: h38 mutant RFP at 50 uM

Structure (SMILES)	activity change [1]	activity change [2]
Cc1cccc(-c2noc(-c3ccccc3C(=O)NCc3ccco3)n2)c1	-20.6%	-11.2%
CCCC[n+]1ccn(-c2nc3ccccc3nc2[N-]S(=O)(=O)c2cccs2)c1	-21.8%	23.6%
COC(=O)c1cc2ccccc2n1S(=O)(=O)c1ccccc1	-25.6%	-16.3%
COc1ccccc1CNC(=O)c1cc2sccc2n1C	-31.5%	10.1%
CCCCNC(=O)c1cc2c(C)cc(C)cc2[nH]1	-41.2%	22.6%
CN(C)CCCN(C(=O)COc1ccc(Cl)cc1)c1nc2ccc(F)cc2s1	-13.8%	-14.6%
NS(=O)(=O)c1cccc(NC(=O)CSc2nc3ccccc3n2-c2ccccc2)c1	-66.3%	-32.2%
O=C(c1cnc(Cc2c[nH]c3ccccc23)c(I)c1)N1CCCCC1	-66.9%	-28.3%
O=[N+]([O-])c1ccc2nc(-c3ccccc3[N+](=O)[O-])[nH]c2c1	-22.8%	-33.3%
O=S(=O)(NCc1cc(-c2ccccc2)no1)c1ccccc1Cl	6.16%	-36.8%
COc1cccc(S(=O)(=O)N2CCCCN3[C@@H](CO)[C@H](c4ccc(C#CC(C)C)cc4)[C@@H]3C2)c1	-96.9%	-45.6%
O=C(CN1c2ccccc2S(=O)(=O)c2ccccc21)NCc1ccc(F)cc1	-37.4%	1.24%
Cc1ccc(C#CC[N+](C)(C)CC#Cc2ccccc2)cc1	-40.9%	–
O=C(O)c1ccc2c(c1)N(Cc1ccc(F)cc1)C(=O)c1ccccc1S2	-38.9%	-0.437%
C[C@@H]1CN([C@@H](C)CO)C(=O)c2cc(NC(=O)Nc3cccc4ccccc34)ccc2O[C@@H](C)CCCCO[C@H]1CN(C)C(=O)CCCN(C)C	0.911%	9.37%
NS(=O)(=O)c1ccc(NC(=O)CCC(=O)O)cc1	6.36%	–
CC(C)c1cc(C(N)=O)c(NC(=O)C2CCC2)s1	-35.6%	-21.6%
O=C(Nc1nc2ccccc2n1CCN1CCOCC1)c1ccccc1	-18.4%	4.35%
O=C(Nc1cccc(Cl)c1)N1C[C@H]2[C@@H](c3ccccc31)[C@H](CO)N2CC1CCCCC1	-77.8%	69.3%
CCCN(CC1CC1)C(=O)CSc1ncnc2sccc12	-30.9%	28.3%
COc1ccc(-c2cc(C(=O)NCc3ccc(C(F)(F)F)cc3)[nH]n2)c(C)c1	-70.6%	12.3%
COC(=O)CC1COc2ccccc2N1C(=O)c1ccc(Br)cc1 (configuration not stated)	-1.78%	0.375%

Structure (SMILES)	activity change [1]	activity change [2]
C=CCN(c1ccccc1)S(=O)(=O)c1ccc(Cl)c(C(=O)OCC(=O)NCCCN2CCCC2=O)c1	–	-23%
CCOC(=O)CN1C(=O)C(CC)Oc2ccc(Cl)cc21 (configuration not stated)	-10.8%	–
NC(=O)c1cccnc1Oc1ccc(Cl)cc1Cl	–	-21.1%
CCN(CC)CCN(C(=O)c1ccc2c(c1)CCCC2)c1nc2ccc(F)cc2s1	-51.1%	-5.41%
CCOC(=O)C1CCCN(C(=O)c2csc(-c3ccc4c(c3)CCO4)n2)C1 (configuration not stated)	-30.4%	–
COc1ccc(C)cc1-n1c(=O)c2ccccc2c2ccccc2c1=O	-44.6%	-5.29%
Cn1cc(CN2CCCC(C(=O)c3cccs3)C2)c(-c2cccc(Cl)c2)n1 (configuration not stated)	-6.54%	-2.24%
CCN(CC)S(=O)(=O)c1ccc(N2CCCC2)c(NC(=O)c2ccc([N+](=O)[O-])o2)c1	-39.9%	-29.7%
CCC1CCCCN1C(=O)CSc1nnc(-c2cccc(Cl)c2)o1 (configuration not stated)	-13.3%	-9.72%
COc1ccc(OC2C(=O)N(Cc3ccc4c(c3)OCO4)C2c2sccc2C)cc1 (configuration not stated)	-41.4%	-6.23%
COc1ccc(-c2ccc3ccccc3n2)cc1OC	-42%	-10.2%
O=C(NCCc1ccccc1)c1cccc(NC(=O)c2ccccc2)c1	-32.1%	-22.4%
CCN(CC(=O)Nc1cccc(S(=O)(=O)N2CCCC2)c1)CC(=O)Nc1ccccc1OC	-10.9%	–
COCc1c(C#N)c(NCCc2ccc(F)cc2)nc(C)c1[N+](=O)[O-]	-4.25%	-0.972%
Cc1ccc2sc(N(CCCN(C)C)C(=O)c3ccc(S(=O)(=O)N4CCc5ccccc5C4)cc3)nc2c1C	-46.1%	-3.86%
Nc1ccccc1Sc1c[nH]c2ccccc12	-14.6%	11.3%
Cc1ccc(C2NC(c3ccc(C)cc3)C(C)C(=O)C2C)cc1 (configuration not stated)	-14.8%	-5.65%
CCCCCCC(=O)N1CCCC(c2nc(-c3cccc(OC)c3)no2)C1 (configuration not stated)	-30%	31.5%
CCCN1C(=O)C(O)(c2c(C)[nH]c3ccccc23)c2ccccc21 (configuration not stated)	-14.9%	-14.2%
O=S(=O)(NC1CC1)c1ccc(S(=O)(=O)N2CCc3ccccc32)cc1	-30.1%	-12.3%
O=C(COC(=O)CCC(=O)c1ccc(F)cc1)NCCc1ccccc1	-20.8%	–
Cc1cc(C(=O)NCCC2=CCCCC2)ccc1[N+](=O)[O-]	-24.9%	14.4%

Structure (SMILES)	activity change [1]	activity change [2]
CCOc1ccc(OCC)c(NC(=O)CSc2nc3cccnc3n2C)c1	-59.3%	-18.3%
CN(c1cccc(NC(=O)c2ccc(CN3CCc4ccccc4C3)cc2)c1)S(C)(=O)=O	-38.1%	14.3%
Cc1cc(-c2ccc(C)c(S(=O)(=O)NC(C)Cc3ccco3)c2)on1 (configuration not stated)	-63.9%	-15%
Cc1ccc(NC(=O)C[n+]2cc(-c3ccccc3)n3c2CCC3)cc1	-20.4%	20.6%
Cc1cccc(-c2ccc([C@@H]3[C@H](CO)N4CCCCN(S(=O)(=O)c5ccccc5C)C[C@@H]34)cc2)c1	-47.5%	242%
Cc1cccc(OCCNc2ncccc2[N+](=O)[O-])c1	-24.7%	–
CN1CCN(C(=O)C[C@H]2CC[C@H]3[C@@H](COC[C@@H](O)CN3C(=O)Nc3ccc(Cl)cc3)O2)CC1	-51.3%	52.5%
O=C(Nc1ccccc1F)N1C[C@@H]2[C@H](c3ccccc31)[C@@H](CO)N2C(=O)Cc1ccccc1	-94.9%	9.31%
CNC(=O)C[C@H]1CC[C@@H]2[C@@H](COc3ccc(NC(=O)Nc4ccc(F)c(F)c4)cc3C(=O)N2C)O1	-17%	0.849%
COC(=O)[C@]1(Sc2ccc(C)cc2)CC(=O)N[C@@H]1c1ccccc1	-25.6%	-2.6%
Cc1ccc(S(=O)(=O)Nc2ccc3c(c2)C(=O)N([C@@H](C)CO)C[C@@H](C)[C@H](CN(C)C(=O)c2ccccc2)OCCCC[C@@H](C)O3)cc1	-52.2%	67.4%
Cc1ccccc1-n1nnnc1SCCCC(=O)c1ccc(F)cc1	-51.3%	-19.8%
O=C(Cc1ccc(Br)cc1)Nc1cccc(-c2cn3c(n2)SCC3)c1	-25.7%	-11.9%
CO[C@@H]1CN(C)C(=O)c2ccc(NC(=O)c3nc4ccccc4s3)cc2OC[C@@H](C)N(Cc2ccncc2)C[C@@H]1C	-90%	-21.2%
COc1cccc(SCC(=O)N2CCN(c3ccccc3)CC2)c1	-15.7%	–
Cc1cc(C)nc(SCc2cn3c(C)cccc3n2)n1	-46.2%	47.5%
c1ccc(Cc2nc3ccccc3s2)cc1	-13.6%	35.4%
COc1ccc(OCCC(=O)OCC(=O)NCCC2=CCCCC2)cc1	-9.19%	21%
CC(C)(C)c1ccc(C(CC(=O)O)NC(=O)Cc2ccc(Cl)cc2)cc1 (configuration not stated)	-17%	–
CC(C)Oc1ccc(C(CC(=O)O)NC(=O)C(Sc2ccccc2)c2ccccc2)cc1 (configuration not stated)	-15.2%	–
Cn1c(-[n+]2c(-c3ccccc3)cc(-c3ccccc3)cc2-c2ccccc2)nc2c([N+](=O)[O-])cccc21	-53.3%	-3.4%
Nc1nc(Nc2ccccc2F)nc(NCc2ccco2)c1[N+](=O)[O-]	-81.4%	–

Given field by field: part of the list above
Cc1ccc(S(=O)(=O)Nc2ccc3c(c2)C(=O)N([C@@H](C)CO)C[C@@H](C)[C@H](CN(C)C(=O)c2ccccc2)OCCCC[C@@H](C)O3)cc1
  activity change [1]: -52.2%
  activity change [2]: 67.4%
Cc1ccccc1-n1nnnc1SCCCC(=O)c1ccc(F)cc1
  activity change [1]: -51.3%
  activity change [2]: -19.8%
O=C(Cc1ccc(Br)cc1)Nc1cccc(-c2cn3c(n2)SCC3)c1
  activity change [1]: -25.7%
  activity change [2]: -11.9%
CC(C)(C)c1ccc(C(CC(=O)O)NC(=O)Cc2ccc(Cl)cc2)cc1 (configuration not stated)
  activity change [1]: -17%

(further entries)

Structure (SMILES)	activity change [1]	activity change [2]
O=C(Nc1cc(F)ccc1F)N1CCCCN2[C@@H](CO)[C@H](c3ccc(-c4cccnc4)cc3)[C@@H]2C1	-11.1%	7.23%
CCCn1c(C(C)Nc2nc(-c3ccc(C)cc3)cs2)nc2ccccc21 (configuration not stated)	-3.25%	63%
CC(=O)Nc1ccc(NS(=O)(=O)c2ccc(Cl)s2)cc1	-24.6%	-2.02%
O=C(Nc1cc(Cl)ccc1-n1cncn1)c1ccc([N+](=O)[O-])o1	-36.8%	–
O=C(Cc1cccc(NC(=O)C2CCCN(C(=O)CCc3ccccc3)C2)c1)Nc1cccc(C(=O)N2CCCC2)c1 (configuration not stated)	-26.3%	15.6%
O=C(CCC1CCCN(C(=O)c2ccsc2)C1)N1CCN(c2ccccn2)CC1 (configuration not stated)	3.17%	–
COC(=O)c1cc(C)sc1NC(=O)CC1Nc2ccccc2NC1=O (configuration not stated)	-0.704%	4.95%
S=c1nc(-c2cc(Cl)cc(Cl)c2)[nH][nH]1	-37.2%	-15.3%
O=C1CN(S(=O)(=O)c2ccc(Cl)cc2)c2ccccc2N1	-40.6%	–
O=C(Nc1ccc(Cl)c(Cl)c1)N[C@@H]1CC[C@H](CCn2cc(C3CCCCC3)nn2)O[C@H]1CO	-83.1%	9.58%
Cc1ccccc1S(=O)(=O)NC(=O)C1(C)CCN1C(=O)C1(c2ccc(Cl)cc2)CC1 (configuration not stated)	-6.16%	11.3%
Cc1cccc(-c2ccc([C@H]3[C@H]4CN(S(=O)(=O)c5ccccc5C)CCCCN4[C@H]3CO)cc2)c1	-1.99%	16%
COc1ccc(-c2cn(-c3ccc(Cl)cc3)c3[n+]2CCCCC3)cc1	-18.7%	-4.48%
CCCCNC(=O)c1c(N)[nH]c(C(=O)c2ccccc2)c1-c1ccccn1	-10%	9.58%
CC1CCN(C(=O)COC(=O)c2ccccc2NC(=O)c2ccco2)CC1	-2.86%	-6.98%
COc1ccc(OC)c(N(CC(=O)Nc2ccccc2F)S(=O)(=O)c2ccccc2)c1	-27.1%	2.07%
CCOc1ccc(S(=O)(=O)Nc2ccc(S(=O)(=O)N3CCCC3)cc2)cc1	-31.5%	0.068%
CCN(Cc1ccccc1)C(=O)COC(=O)c1cc(Cl)nc(Cl)c1	2.8%	4.65%
Cc1noc(C)c1NC(=O)Nc1ccc2c(c1)C(=O)N([C@H](C)CO)C[C@H](C)[C@@H](CN(C)C(=O)Nc1ccc3c(c1)OCO3)OCCCC[C@H](C)O2	-2.59%	2.56%
Cc1ccc(-c2cc(-c3ccc(C)cc3)[n+](-c3ccc(C(=O)[O-])cc3)c(-c3ccc(C)cc3)c2)cc1	-18.7%	25.4%
CCc1ccc(NC(=O)COC(=O)CCCC2=NS(=O)(=O)c3ccccc3N2)cc1	-30.3%	–
